Results: publication PMC6447637
These are yes or no findings as the source states them, for the method shown.

Molecular target: NaV1.4 CTerm Short (residues 1599–1754), as co-purified with CaM for crystallization (human) (UniProt P35499)
Test: crystal structure; NaV1.4 CTerm Short–CaM complex with 20 mM CaCl2, 20 mM MgCl2 and the DIII–DIV linker peptide at a 1:1 ratio with the complex (800 µM), hanging drop at 18 °C, MORPHEUS condition F8, pH 7.5; 3.30 Å; both purified

binding: no binding
Substance: NaV1.4 CTerm Short (residues 1599–1754), as co-purified with CaM for crystallization (from UniProt P35499 1599-1754) (domain or fragment)
